Results as given in article PMC5740110.
These are yes or no findings as the source states them, for the method shown.

By UniProt entry, the sequences of proteins in these tests, tags left out.
UniProt P15873: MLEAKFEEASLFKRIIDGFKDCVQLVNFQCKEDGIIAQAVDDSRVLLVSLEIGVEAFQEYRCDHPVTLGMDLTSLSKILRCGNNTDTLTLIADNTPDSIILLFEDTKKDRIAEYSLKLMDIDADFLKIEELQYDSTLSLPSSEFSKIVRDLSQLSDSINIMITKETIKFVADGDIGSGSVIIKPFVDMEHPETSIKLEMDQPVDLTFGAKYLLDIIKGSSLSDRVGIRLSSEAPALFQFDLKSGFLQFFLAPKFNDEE
UniProt P61077: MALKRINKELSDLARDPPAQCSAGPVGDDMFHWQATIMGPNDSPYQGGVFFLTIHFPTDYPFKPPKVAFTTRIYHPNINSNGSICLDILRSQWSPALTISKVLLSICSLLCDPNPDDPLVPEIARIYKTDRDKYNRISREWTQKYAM

Biological target: yeast PCNA (proliferating cell nuclear antigen) (yeast) (UniProt P15873)
Test: cross-linking; small molecule cross-linker BS3 2 mM, 20 μM of each protein, 20 mM Hepes pH 7.5, 150 mM NaCl, room temperature, 1 h; SDS-PAGE and western blot; both purified

ubiquitin-conjugating enzyme UBE2D3 (from UniProt P61077 1-147)
binding: no binding (tested: 20 μM UBE2D3 and 20 μM yPCNA)
